Measurements: PMC4567078
These are yes or no findings as the source states them, for the method shown. In cells and extracts the contact can be indirect. Where a sequence is shown, tags or fusion partners need not be part of it. Each block holds one binder with its values, some of them ahead of it.

Legend:
[1] = target: T1, mouse V5-tagged SIT1 (SIT1-V5) (mouse) (UniProt Q8VDB9); experiment: co-IP; attempted co-immunoprecipitation of myc-Myo1b and SIT1-V5 with anti-myc or anti-V5 antibodies; cells and extraction conditions not told; told only in the discussion
T1 sequence: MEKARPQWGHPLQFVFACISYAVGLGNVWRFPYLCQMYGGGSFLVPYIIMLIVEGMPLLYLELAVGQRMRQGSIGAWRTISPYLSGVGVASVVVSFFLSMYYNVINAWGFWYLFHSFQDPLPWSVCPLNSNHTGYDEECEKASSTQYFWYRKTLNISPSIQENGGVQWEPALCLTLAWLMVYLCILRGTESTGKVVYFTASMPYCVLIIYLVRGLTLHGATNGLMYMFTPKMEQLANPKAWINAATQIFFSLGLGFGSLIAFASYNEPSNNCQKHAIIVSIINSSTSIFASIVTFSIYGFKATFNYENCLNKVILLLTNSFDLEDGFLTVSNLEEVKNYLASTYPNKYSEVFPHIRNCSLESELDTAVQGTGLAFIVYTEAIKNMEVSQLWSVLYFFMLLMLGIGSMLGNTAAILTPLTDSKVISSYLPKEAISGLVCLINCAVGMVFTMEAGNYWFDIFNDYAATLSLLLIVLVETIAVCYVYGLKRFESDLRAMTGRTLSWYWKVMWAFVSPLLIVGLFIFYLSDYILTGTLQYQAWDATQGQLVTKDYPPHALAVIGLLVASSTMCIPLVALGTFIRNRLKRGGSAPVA

myc-Myo1b = target: T2, myc-Myo1b (UniProt Q05096); experiment: as above
T2 sequence: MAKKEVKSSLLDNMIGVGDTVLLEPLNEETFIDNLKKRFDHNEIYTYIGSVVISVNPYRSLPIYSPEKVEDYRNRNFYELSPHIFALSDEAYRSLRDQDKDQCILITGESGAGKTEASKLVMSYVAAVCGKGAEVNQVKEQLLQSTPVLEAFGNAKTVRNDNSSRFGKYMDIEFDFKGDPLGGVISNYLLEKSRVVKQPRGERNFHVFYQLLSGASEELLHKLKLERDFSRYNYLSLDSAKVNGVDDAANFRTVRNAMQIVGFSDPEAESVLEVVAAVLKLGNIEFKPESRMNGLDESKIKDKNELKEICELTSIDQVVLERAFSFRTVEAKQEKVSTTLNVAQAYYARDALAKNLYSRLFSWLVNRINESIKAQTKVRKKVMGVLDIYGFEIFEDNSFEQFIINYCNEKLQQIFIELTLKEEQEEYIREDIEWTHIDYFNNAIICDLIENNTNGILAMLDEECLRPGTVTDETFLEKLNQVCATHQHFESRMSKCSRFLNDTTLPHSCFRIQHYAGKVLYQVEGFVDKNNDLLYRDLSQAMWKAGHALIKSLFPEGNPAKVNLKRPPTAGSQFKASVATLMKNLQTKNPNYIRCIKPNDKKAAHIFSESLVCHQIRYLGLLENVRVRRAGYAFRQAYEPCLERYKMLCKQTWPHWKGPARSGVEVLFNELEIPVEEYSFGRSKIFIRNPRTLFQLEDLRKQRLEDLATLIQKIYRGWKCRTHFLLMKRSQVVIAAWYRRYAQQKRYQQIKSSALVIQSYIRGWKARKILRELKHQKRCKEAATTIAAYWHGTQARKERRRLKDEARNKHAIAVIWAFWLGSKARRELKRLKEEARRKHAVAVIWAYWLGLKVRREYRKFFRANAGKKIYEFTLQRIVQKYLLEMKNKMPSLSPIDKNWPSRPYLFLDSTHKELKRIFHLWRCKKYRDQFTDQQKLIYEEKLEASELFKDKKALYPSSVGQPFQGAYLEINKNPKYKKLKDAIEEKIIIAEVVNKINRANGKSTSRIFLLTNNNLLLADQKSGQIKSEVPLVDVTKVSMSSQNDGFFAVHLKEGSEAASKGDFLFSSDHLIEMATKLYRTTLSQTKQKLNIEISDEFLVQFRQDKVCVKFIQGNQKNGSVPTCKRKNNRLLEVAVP

binding [1]: no binding
B1: myc-Myo1b (protein, UniProt Q05096 1-1136)
chain: T2 sequence

binding (myc-Myo1b): no binding
B2: mouse V5-tagged SIT1 (SIT1-V5) (protein, UniProt Q8VDB9 1-592)
chain: T1 sequence
